± gives the standard deviation. The entries are a selection whose mix differs from that of the whole data set. Many entries were measured with a wide error.
System: MIWI (PIWIL1) piRISC loaded with L1MC piRNA (30 nt)
Assay: pre-steady-state target cleavage rate (min^-1); MIWI and MILI are mouse PIWI proteins and EfPiwi is from a freshwater sponge; tags in brackets are library labels; higher = faster piRNA-guided slicing of the target
Conditions: guide: L1MC piRNA 5'p-UAACUAAAUACUAUGCAAGCUGUAGGUCCU; auxiliary factor: 500 nM mouse GTSF1
Procedure, shortened: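 Three pooled Cleave-'n-Seq trials supplied the data, with k3 capped at 0.0001 min^-1. In each, […] transcribed, DNA-blocked target RNA library and 1 nM active affinity-purified piRISC with one synthetic guide reacted in HEPES–potassium acetate buffer at 33 °C for 0–8 or 0–960 min, with or without 500 nM GTSF1 partner protein. Uncleaved targets were sequenced and normalised to depth and to weakly complementary targets. A burst-and-steady-state fit provided the pre-steady-state cleavage rate.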
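Also: 1 nM active piRISC with 0.1 nM target library at 33 °C single turnover.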

Sequence | pre-steady-state target cleavage rate
UCCUGGAUGUCGAACCAUAGUAAUUUGUUA | 0.000312 ± 0.021
UGGACCAUCAGCUUGCAUAGUAUUUAGUUA | 1.44 ± 0.056
ACGAGCUACAGCUUGCAUAGUAUUUAGUUA | 1.54 ± 0.057

Same assay, conditions: guide: L1MC piRNA 5'p-UAACUAAAUACUAUGCAAGCUGUAGGUCCU; auxiliary factor: none (no GTSF1)

Sequence | pre-steady-state target cleavage rate
UCGACCUACAGCUUGCAUAGUAAAAAGAAA | 0.000517 ± 0.011
UCCACCUACAGCUUCGAUAGUAUUUACAAA | 0.000198 ± 0.016
UGGACCUACAGCUUCCAUAGUAUUUAGAUA | 0.000722 ± 0.0063
AGGACCUACAGCAACCAUAGUAUUUACAAA | 0.000625 ± 0.012
UCCUCCUACAGCUUGGUAAGUAUUUAGUAA | 0.000794 ± 0.0055
UCCUGGAUGUCGAAGCAUAGUAUUUUCAAA [g6:g16:cont:t1A] | 0.000281 ± 0.017
UCCACCUUGUGCUUGCAUAGUAUUUAGAAA | 0.00211 ± 0.0024
UCCACCUACAGCUUCCAUAGUAUUUAGUAA | 0.00145 ± 0.0044
UCCACCUACAGCUUCCAUAGUAUUAAGUUA | 0.000768 ± 0.0068
UCGACCUACAGCUUCCAUAGUAUUUUGUUA | 0.00126 ± 0.0047
UCCUGGAUGUCGAACGAUACUUUUUAGUUA | 0.000195 ± 0.026
UCGACCUACAGGAUGCAUAGUAUUUACAAA | 0.00098 ± 0.0075
UCCACCUACAGCUUGCAUAGAUAUUAGAAA | 0.000672 ± 0.01
UCCACCUACAGCUUGCAAUCAUAAAUCAAA [g14:g27:cont:t1A] | 0.000468 ± 0.015
UGGACCUACAGCUUGCUAAGUAUUUUCAAA | 0.000183 ± 0.013
UCCACCUACAGCUUGCAUACUAUUUACAAA | 0.00215 ± 0.0033
UCCACCUACAGCUACGAUAGUAUUUAGUAA | 0.000198 ± 0.018
AGGACCUACAGCUACCAUAGUAUUUUCAAA | 0.000488 ± 0.012
UCCUGGAUGUCGAACGUAACAUUUUAGUUA | 0.000224 ± 0.017

Exported field by field: part of the list above.
UCCUCCUACAGCUUGGUAAGUAUUUAGUAA
  pre-steady-state target cleavage rate: 0.000794 ± 0.0055
UGGACCUACAGCUUGCUAAGUAUUUUCAAA
  pre-steady-state target cleavage rate: 0.000183 ± 0.013

The list continues:

Sequence | pre-steady-state target cleavage rate
UCCACCUACAGCUUGCAUAGUAUUAUCUAA | 0.00144 ± 0.0051
UCGACCUACAGCUUGCAUACAUUUUAGAAA | 0.000823 ± 0.0092
UCCACCUACAGCUUGGUUAGUAUUUUCAAA | 0.000276 ± 0.009
UGGACCUACAGCUUGCUAUCAUAAAUCAAA [g15:g29:cont:t1A] | 0.00013 ± 0.022
UCGACCUACAGCUUGCAUAGUUAUUAGAAA | 0.00153 ± 0.0046
UCGACCUACAGCUUGCAUAGUAUAAAGUAA | 0.00301 ± 0.0032
UCGACCUACAGCUUGCAUAGAUAUUAGUUA | 0.00108 ± 0.004
AGGACCUACAGCAACCAUAGUAUUUAGAAA | 0.000307 ± 0.012
UCCACCUACAGCUUGCAUGAGUAUUUAGUUA | 0.000708 ± 0.0094
UCCACCUACAGCUUGCAAUCUAUUUUCAAA | 0.000499 ± 0.013
UCCUGCUAGUGCUUGCAUAGUAUUUUCAAA | 0.00114 ± 0.0041
UCGACCUAGUGCUUGCAUAGUAUUUUCAAA | 0.00201 ± 0.0021
UCCACCUACAGCUUCGUUAGUAUUUUCAAA | 0.000178 ± 0.016
UCCACCUACAGCUUGCAUAGUAAUAAGUUA | 0.00174 ± 0.0047
UCCUGGAUGUCGAACGAUAGUAUUAAGUAA | 0.000136 ± 0.031
UCCUGGAUGAGGUUCCAUAGUAUUUAGUUA | 0.000699 ± 0.012
UGGACCUACAGCUUCGAUAGUAUUUAGUUA | 0.00226 ± 0.0028
UCCACCUACAGCUUGCACUAGUAUUUAGUUA | 0.000946 ± 0.0077
